Measurements as given in the supplement of paper PMC12823440, “Inhibitors supercharge kinase turnover through native proteolytic circuits” (Nature, 2025).
Where a name gives a salt, the structure may show the parent alone. Some of the results follow. Hit calls seldom repeat between salt and free forms of one compound.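 Kinases, fused to nanoluciferase, were expressed in K562 cells; luminescence was measured every 4 h from 2 to 18 h as percent of control (DMSO = 100%, positive control = 0%). A time point is decreased if signal falls significantly (2 sigma). Hits were called by the authors by a rule that is not shown; the count of time points alone does not decide it.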

By UniProt entry, the sequences of proteins in these tests, tags left out. Where a name states a change or a piece, a line headed by the entry shows the natural chain unless it says otherwise.
UniProt P48730: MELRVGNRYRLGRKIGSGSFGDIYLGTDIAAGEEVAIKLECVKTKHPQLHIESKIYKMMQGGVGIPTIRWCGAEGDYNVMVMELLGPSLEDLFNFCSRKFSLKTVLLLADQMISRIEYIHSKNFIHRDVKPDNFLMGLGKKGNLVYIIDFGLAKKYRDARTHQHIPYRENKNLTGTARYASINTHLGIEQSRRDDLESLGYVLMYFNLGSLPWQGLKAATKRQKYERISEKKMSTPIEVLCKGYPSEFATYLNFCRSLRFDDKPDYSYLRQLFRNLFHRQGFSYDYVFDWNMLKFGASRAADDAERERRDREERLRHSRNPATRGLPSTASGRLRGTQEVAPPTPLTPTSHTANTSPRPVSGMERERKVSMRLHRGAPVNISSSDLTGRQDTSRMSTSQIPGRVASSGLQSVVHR

These compounds were tested against CSNK1D (UniProt P48730) (assay: kinase-Nluc reporter destabilization hit call (1 = scored as downregulated) (binary); higher = compound decreases kinase abundance). Conditions: 2.5 µM; K562; 2-18 h.

kinase-Nluc reporter destabilization hit call, inactive:
C=CC(=O)N1CCC[C@@H](n2nc(-c3ccc(Oc4ccccc4)cc3)c3c(N)ncnc32)C1 [Ibrutinib] 0
Cc1cn(-c2cc(NC(=O)c3ccc(C)c(Nc4nccc(-c5cccnc5)n4)c3)cc(C(F)(F)F)c2)cn1 [Nilotinib] 0
Cc1cc(C)n2c1C=C1C=CC(CCC(=O)NCCN3CCN(C/C=C/C(=O)N4CCCC(n5nc(-c6ccc(Oc7ccccc7)cc6)c6c(N)ncnc65)C4)CC3)=[N+]1[B-]2(F)F (stereo not given) 0
Cc1cnc(Nc2ccc(OCCN3CCCC3)cc2)nc1Nc1cccc(S(=O)(=O)NC(C)(C)C)c1 [Fedratinib (hydrochloride hydrate)] 0
C=CC(=O)Nc1cc2c(Nc3ccc(F)c(Cl)c3)ncnc2cc1OCCCN1CCOCC1 [Canertinib (dihydrochloride)] 0
O=C(Nc1cccc(Nc2nccc(Nc3cccc(C(F)(F)F)c3)n2)c1)C1CC1 [Aurora kinase inhibitor-3] 0
COc1ccc(-c2cc3nccn3c(Nc3ncccc3C(N)=O)n2)cc1OC [BAY 61-3606 (dihydrochloride)] 0
Nc1nc(Nc2ccc(S(N)(=O)=O)cc2)nn1C(=O)c1c(F)cccc1F 0
COc1cc(N2CCC(N3CCN(C)CC3)CC2)ccc1Nc1ncc(Cl)c(Nc2ccccc2S(=O)(=O)C(C)C)n1 0
COc1cc(Nc2c(C#N)cnc3cc(OCCCN4CCN(C)CC4)c(OC)cc23)c(Cl)cc1Cl [Bosutinib] 0
CCc1cc2c(cc1-c1cnn(CC(=O)N(C)C)c1)C(C)(C)c1[nH]c3cc(C#N)ccc3c1C2=O 0
Cc1cnc(Nc2ccc(OCCN3CCCC3)cc2)nc1Nc1cccc(S(=O)(=O)NC(C)(C)C)c1 [Fedratinib] 0
Cc1cc(Nc2cc(N3CCN(C)CC3)nc(/C=C/c3ccccc3)n2)n[nH]1 [ENMD-2076 (Tartrate)] 0
Cc1cc(Nc2cc(N3CCN(C)CC3)nc(/C=C/c3ccccc3)n2)n[nH]1 0

Same assay, conditions: 10 µM; K562; 2-18 h

kinase-Nluc reporter destabilization hit call, inactive:
C=CC(=O)N1CCC([C@@H]2CCNc3c(C(N)=O)c(-c4ccc(Oc5ccccc5)cc4)nn32)CC1 [Zanubrutinib] 0
CCn1c(=O)c(-c2cc(NC(=O)Nc3ccccc3)c(F)cc2Br)cc2cnc(NC)cc21 [Ripretinib] 0
COc1cc(N2CCN(C)CC2)ccc1Nc1nccc(-c2cn(C)c3cnccc23)n1 0
Fc1ccc(-c2nc(-c3ccc4ccccc4c3F)[nH]c2-c2ccncc2)cc1 0
C=CC(=O)N(C)CCOc1c(N)ncnc1-c1cc(F)cc(NC(=O)c2ccc(C3CC3)cc2F)c1C [Remibrutinib] 0
NCCNc1ncc(C(N)=O)c(Nc2cccc(C(F)(F)F)c2)n1 [Syk Inhibitor II] 0
C[C@@H]1O[C@@H](Oc2c(-c3ccc(O)c(O)c3)oc3cc(O)cc(O)c3c2=O)[C@H](O)[C@H](O)[C@H]1O [Quercitrin] 0
CCCOc1ccc(C=C2SC(=O)NC2=O)cc1 0
Cc1cc2c(F)c(Oc3ncnn4cc(OC[C@@H](C)O)c(C)c34)ccc2[nH]1 [Brivanib] 0
CC(C)[C@@](C)(O)[C@@H]1CN(c2nc(-c3[nH]nc4ncccc34)c(F)cc2Cl)CCN1 0
CCCCCCCCCCCCc1ccc(S(=O)(=O)Nc2nncs2)cc1 0
CC#CC(=O)N1CCC[C@H]1c1nc(-c2ccc(C(=O)Nc3ccccn3)cc2)c2c(N)nccn12 [Acalabrutinib] 0
CC(C)N(CCC(=O)c1ccc2ccccc2c1)Cc1ccccc1 0
C=CC(=O)N1C[C@@H](Nc2ncnc3[nH]ccc23)CC[C@H]1C [(2R,5S)-Ritlecitinib] 0
COc1ccc(-c2cc(C(=O)NN=C(C)c3ccc(OC)c(OC)c3)[nH]n2)cc1 0
Cn1cc(/C=C2\C(=O)Nc3cccnc32)c2ccccc21 0
Cc1ccc2c(=O)c3cccc(CC(=O)O)c3oc2c1C [Vadimezan] 0
C[C@@H]1CN(C(=O)Nc2ccc(-c3nc(N4CCOCC4)c4cnn(CCCCCCC(=O)NO)c4n3)cc2)CCO1 [HDACs/mTOR Inhibitor 1] 0
C[C@H]1CN(C2COC2)CCN1c1ccc(Nc2cc(-c3ccnc(N4CCn5c(cc6c5CC(C)(C)C6)C4=O)c3CO)cn(C)c2=O)nc1 [Fenebrutinib] 0
Nc1ncccc1-c1nc2ccc(-c3ccccc3)nc2n1-c1ccc(C2(N)CCC2)cc1 [Miransertib] 0
C=CC(=O)Nc1cc2c(Nc3ccc(F)c(Cl)c3)ncnc2cc1OCCCN1CCOCC1 [Canertinib] 0
O=c1ncn2nc(Sc3ccc(F)cc3F)ccc2c1-c1c(Cl)cccc1Cl [Neflamapimod] 0
CCCCCC1CC1CC1CC1CCCCCCCC(=O)OC (stereo not given) 0
CC(C)(C)n1nc(-c2ccc(Cl)cc2)c2c(N)ncnc21 0
NC1(C(=O)N[C@@H](CCO)c2ccc(Cl)cc2)CCN(c2nc[nH]c3nccc2-3)CC1 [Capivasertib] 0
Cc1ccc(O)cc1Nc1ccnc(Nc2cccc(C(N)=O)c2)n1 [Lck inhibitor 2] 0

Eight entries from above, arranged by molar mass, largest number first:
kinase-Nluc reporter destabilization hit call, inactive:
C[C@@H]1CN(C(=O)Nc2ccc(-c3nc(N4CCOCC4)c4cnn(CCCCCCC(=O)NO)c4n3)cc2)CCO1 [HDACs/mTOR Inhibitor 1] 0
O=c1ncn2nc(Sc3ccc(F)cc3F)ccc2c1-c1c(Cl)cccc1Cl [Neflamapimod] 0
Nc1ncccc1-c1nc2ccc(-c3ccccc3)nc2n1-c1ccc(C2(N)CCC2)cc1 [Miransertib] 0
NC1(C(=O)N[C@@H](CCO)c2ccc(Cl)cc2)CCN(c2nc[nH]c3nccc2-3)CC1 [Capivasertib] 0
CC(C)N(CCC(=O)c1ccc2ccccc2c1)Cc1ccccc1 0
CCCCCC1CC1CC1CC1CCCCCCCC(=O)OC (stereo not given) 0
CC(C)(C)n1nc(-c2ccc(Cl)cc2)c2c(N)ncnc21 0
Cn1cc(/C=C2\C(=O)Nc3cccnc32)c2ccccc21 0
